The supplement of paper PMC6411743
± gives the standard deviation of the averaged measurements. The list shows a part of the results, in another mix than the full data. Most entries show no effect beyond the scatter of the controls.

Sequences of proteins named here, by UniProt entry; tags and fusion partners are left off. A change or cut given only in a name is not applied to a line headed by its entry.
UniProt Q8IWB7: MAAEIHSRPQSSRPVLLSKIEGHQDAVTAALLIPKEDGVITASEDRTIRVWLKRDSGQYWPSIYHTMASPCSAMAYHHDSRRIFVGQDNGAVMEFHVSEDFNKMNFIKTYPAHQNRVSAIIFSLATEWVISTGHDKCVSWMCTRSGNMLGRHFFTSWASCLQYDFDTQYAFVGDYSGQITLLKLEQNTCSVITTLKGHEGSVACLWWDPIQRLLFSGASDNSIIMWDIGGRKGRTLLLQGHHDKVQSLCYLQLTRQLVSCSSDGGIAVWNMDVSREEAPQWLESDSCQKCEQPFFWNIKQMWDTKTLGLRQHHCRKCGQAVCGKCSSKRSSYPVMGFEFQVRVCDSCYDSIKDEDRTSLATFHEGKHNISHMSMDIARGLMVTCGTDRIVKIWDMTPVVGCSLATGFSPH
UniProt Q86X55: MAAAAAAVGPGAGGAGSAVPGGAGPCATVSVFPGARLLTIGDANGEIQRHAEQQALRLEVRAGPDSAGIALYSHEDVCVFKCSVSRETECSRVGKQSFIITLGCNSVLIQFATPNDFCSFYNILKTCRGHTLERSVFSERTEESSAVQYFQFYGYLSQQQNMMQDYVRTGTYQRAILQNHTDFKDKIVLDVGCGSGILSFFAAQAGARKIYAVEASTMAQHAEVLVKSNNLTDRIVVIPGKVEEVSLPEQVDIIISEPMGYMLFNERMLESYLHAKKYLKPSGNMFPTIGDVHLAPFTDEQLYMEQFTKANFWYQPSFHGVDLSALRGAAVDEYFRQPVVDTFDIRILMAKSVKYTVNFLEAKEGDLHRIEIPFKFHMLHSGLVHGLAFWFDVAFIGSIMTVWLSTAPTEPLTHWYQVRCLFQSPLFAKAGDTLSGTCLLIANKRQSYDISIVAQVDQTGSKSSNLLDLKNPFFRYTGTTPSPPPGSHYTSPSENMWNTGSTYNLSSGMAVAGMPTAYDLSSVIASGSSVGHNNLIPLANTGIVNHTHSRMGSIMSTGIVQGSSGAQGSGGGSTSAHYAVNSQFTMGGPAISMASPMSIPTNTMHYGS
UniProt Q8NBJ4: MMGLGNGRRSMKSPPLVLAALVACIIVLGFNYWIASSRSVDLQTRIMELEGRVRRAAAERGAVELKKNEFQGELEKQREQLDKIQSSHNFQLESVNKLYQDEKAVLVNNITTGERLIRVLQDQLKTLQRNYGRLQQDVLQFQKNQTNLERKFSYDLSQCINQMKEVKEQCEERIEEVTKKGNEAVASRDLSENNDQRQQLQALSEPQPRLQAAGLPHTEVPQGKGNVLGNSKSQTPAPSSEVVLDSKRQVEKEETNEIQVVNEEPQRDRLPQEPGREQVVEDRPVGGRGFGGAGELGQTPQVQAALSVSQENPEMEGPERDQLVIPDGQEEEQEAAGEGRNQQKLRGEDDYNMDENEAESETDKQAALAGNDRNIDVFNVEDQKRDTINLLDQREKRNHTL
UniProt Q86WA6: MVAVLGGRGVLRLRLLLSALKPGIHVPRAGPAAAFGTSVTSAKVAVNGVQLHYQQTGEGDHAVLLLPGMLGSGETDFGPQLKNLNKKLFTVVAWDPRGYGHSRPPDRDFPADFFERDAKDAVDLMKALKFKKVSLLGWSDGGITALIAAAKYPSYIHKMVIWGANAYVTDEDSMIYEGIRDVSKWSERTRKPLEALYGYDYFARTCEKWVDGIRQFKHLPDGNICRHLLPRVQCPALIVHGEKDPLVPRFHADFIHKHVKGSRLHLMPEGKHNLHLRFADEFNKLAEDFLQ
UniProt Q86US8: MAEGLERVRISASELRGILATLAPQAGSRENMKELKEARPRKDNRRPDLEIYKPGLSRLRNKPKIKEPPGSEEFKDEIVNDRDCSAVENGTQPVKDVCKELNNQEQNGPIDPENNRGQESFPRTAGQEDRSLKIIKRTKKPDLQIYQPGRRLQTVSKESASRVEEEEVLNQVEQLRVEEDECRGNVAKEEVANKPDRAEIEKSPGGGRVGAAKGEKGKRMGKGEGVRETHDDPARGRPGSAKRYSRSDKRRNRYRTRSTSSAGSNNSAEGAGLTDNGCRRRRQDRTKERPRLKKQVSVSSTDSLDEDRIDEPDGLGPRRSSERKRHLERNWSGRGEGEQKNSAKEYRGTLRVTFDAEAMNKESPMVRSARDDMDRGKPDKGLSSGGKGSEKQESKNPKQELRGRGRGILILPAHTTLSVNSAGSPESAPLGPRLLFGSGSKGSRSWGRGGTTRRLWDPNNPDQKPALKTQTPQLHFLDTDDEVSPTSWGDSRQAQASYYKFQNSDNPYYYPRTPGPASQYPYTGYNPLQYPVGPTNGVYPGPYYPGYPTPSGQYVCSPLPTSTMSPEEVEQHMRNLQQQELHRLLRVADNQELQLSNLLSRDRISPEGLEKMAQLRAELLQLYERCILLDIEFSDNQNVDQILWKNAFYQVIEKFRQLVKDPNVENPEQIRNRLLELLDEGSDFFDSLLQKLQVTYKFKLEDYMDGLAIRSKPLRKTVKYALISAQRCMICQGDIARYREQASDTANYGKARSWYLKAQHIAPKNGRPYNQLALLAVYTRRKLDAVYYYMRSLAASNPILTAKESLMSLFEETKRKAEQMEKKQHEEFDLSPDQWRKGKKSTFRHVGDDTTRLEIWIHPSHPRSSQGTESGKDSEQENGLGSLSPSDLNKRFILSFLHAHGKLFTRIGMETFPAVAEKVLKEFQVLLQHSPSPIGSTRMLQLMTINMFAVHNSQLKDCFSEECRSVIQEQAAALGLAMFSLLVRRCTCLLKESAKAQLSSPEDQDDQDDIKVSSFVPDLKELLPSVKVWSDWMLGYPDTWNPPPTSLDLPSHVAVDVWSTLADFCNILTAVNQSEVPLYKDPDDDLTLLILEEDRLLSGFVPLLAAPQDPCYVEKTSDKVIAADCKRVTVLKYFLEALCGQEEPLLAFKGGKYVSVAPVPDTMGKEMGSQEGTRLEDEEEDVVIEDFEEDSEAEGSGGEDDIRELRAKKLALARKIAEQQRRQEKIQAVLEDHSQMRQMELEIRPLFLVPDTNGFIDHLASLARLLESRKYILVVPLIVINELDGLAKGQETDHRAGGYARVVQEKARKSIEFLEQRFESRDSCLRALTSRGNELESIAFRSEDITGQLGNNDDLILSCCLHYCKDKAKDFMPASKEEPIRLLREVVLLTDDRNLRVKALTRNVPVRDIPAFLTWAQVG
UniProt Q8IZ73: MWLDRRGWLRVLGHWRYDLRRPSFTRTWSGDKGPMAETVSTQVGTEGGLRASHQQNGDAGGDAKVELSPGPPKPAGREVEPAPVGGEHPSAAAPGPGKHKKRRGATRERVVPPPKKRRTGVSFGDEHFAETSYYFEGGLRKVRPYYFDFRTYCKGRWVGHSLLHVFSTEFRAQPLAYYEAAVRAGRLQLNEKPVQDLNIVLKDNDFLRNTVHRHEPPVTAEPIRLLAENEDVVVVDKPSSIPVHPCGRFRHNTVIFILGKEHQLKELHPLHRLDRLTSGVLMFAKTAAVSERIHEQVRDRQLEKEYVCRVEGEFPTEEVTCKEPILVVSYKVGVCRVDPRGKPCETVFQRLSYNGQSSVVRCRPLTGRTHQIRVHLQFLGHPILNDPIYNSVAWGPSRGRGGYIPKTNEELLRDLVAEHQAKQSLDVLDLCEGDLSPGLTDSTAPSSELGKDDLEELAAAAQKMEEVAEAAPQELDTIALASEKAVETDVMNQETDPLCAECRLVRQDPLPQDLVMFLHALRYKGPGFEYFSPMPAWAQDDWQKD
UniProt Q8IWU2: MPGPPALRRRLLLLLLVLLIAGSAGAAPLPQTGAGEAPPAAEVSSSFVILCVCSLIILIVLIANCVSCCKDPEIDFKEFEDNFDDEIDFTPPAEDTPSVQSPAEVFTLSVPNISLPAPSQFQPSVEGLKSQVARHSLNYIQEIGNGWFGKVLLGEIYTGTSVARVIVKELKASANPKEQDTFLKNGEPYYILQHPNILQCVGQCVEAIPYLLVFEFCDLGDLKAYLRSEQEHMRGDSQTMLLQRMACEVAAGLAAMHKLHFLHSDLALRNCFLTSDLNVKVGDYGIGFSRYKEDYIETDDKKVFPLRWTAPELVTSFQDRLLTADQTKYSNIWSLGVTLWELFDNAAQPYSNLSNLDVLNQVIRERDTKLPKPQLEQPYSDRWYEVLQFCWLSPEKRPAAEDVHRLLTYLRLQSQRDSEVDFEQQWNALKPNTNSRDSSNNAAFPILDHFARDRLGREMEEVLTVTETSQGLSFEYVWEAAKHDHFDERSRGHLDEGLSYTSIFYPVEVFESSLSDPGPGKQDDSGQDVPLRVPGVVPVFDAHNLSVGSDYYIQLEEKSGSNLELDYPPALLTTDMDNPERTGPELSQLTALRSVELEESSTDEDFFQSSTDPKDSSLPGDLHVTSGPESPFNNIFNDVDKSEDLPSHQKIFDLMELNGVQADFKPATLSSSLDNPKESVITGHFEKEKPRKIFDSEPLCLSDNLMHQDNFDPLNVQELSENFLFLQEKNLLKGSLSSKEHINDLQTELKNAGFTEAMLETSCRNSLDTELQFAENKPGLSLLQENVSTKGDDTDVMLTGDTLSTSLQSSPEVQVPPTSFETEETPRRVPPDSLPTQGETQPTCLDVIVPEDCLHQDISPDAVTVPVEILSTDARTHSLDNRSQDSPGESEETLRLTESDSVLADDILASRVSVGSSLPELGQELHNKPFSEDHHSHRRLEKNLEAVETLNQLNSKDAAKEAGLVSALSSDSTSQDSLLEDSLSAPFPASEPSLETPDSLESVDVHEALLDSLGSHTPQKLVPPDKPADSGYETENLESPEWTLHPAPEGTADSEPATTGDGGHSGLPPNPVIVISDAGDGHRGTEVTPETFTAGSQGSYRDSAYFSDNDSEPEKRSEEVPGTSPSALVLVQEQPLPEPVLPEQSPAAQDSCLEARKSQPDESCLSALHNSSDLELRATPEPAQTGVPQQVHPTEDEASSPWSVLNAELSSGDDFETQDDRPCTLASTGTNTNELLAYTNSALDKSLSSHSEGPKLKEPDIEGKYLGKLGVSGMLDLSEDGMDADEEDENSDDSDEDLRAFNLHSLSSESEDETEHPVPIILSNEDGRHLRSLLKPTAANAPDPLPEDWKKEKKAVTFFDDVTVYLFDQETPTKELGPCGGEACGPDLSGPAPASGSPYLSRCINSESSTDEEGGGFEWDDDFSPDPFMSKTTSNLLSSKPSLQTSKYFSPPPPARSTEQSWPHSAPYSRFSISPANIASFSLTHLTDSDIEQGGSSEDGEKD
UniProt Q8N4T8: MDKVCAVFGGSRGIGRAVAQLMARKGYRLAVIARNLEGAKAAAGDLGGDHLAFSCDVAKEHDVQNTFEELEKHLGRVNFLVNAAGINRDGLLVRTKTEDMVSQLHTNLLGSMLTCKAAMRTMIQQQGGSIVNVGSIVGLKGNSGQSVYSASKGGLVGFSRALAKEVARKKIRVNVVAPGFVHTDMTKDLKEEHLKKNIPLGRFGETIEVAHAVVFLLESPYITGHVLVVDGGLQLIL
UniProt Q8N5A5: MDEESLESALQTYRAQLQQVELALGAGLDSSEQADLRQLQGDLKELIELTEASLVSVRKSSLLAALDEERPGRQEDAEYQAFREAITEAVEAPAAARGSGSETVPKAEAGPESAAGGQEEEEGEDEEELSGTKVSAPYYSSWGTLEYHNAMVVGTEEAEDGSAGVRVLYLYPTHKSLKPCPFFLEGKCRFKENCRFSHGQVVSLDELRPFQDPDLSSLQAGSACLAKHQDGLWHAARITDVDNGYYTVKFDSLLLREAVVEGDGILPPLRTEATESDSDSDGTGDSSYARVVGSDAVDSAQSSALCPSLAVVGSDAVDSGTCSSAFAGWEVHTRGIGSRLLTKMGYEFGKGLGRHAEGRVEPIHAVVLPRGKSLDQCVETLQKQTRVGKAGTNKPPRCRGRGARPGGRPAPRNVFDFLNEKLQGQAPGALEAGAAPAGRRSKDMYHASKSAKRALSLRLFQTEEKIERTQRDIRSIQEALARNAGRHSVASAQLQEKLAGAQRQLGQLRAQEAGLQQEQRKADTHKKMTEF
UniProt Q8IWZ8: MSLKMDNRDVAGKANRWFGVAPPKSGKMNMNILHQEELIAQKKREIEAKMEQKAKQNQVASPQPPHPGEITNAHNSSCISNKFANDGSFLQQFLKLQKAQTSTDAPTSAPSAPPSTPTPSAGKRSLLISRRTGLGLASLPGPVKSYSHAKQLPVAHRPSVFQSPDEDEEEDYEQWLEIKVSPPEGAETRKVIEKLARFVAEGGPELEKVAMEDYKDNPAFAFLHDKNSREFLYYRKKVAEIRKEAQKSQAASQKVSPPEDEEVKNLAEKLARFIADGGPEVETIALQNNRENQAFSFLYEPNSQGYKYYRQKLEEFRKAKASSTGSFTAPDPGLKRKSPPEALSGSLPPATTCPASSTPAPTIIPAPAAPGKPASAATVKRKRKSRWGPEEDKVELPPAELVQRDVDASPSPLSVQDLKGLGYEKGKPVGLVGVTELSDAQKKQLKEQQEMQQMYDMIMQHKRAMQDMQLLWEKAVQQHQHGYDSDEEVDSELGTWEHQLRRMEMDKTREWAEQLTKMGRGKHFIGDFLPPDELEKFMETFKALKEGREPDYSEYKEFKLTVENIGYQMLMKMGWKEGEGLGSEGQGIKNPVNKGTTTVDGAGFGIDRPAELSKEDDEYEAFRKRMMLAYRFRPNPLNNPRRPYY

Each target was assayed with Nc1ncnc2c1ncn2[C@@H]1O[C@H](COP(=O)(O)OP(=O)(O)NP(=O)(O)O)[C@@H](O)[C@H]1O [adenylyl imidodiphosphate] (assay: NP40-soluble protein abundance relative to vehicle (solubility fold change) (ratio); higher = more soluble protein in presence of AMP-PNP). Settings: concentration: 0.1mM.
Method in brief: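 Each value is a fold change relative to the detergent-processed vehicle, calculated per replicate from vsn-normalised intensities. Jurkat crude lysate received eight concentrations (0.1 to 10 mM) for 10 min at room temperature and 3 min at 37 °C, then was solubilised in 0.8% NP40 with benzonase (60 min, 4 °C). The ultracentrifuged supernatant was TMT-labelled and run by LC-MS/MS in three independent experiments.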
UniProt Q86WJ1 and related entries gave an NP40-soluble protein abundance of 1.03 ± 0.037. Work on WDFY1 (UniProt Q8IWB7) yielded an NP40-soluble protein abundance of 0.992 ± 0.034. UniProt Q86X55 and related entries gave an NP40-soluble protein abundance of 0.997 ± 0.027. In the case of GLCCI1 (UniProt Q86VQ1), the NP40-soluble protein abundance is reported as 0.999 ± 0.025. Work on NUDCD3 (UniProt Q8IVD9) yielded an NP40-soluble protein abundance of 0.961 ± 0.024. UniProt Q8IUH3-3 gave an NP40-soluble protein abundance of 1.006 ± 0.0094. UniProt Q8NBJ4 and related entries gave an NP40-soluble protein abundance of 1 ± 0.02. Work on UniProt Q86WA6 and related entries yielded an NP40-soluble protein abundance of 0.999 ± 0.015. Work on CCDC82 (UniProt Q8N4S0) yielded an NP40-soluble protein abundance of 0.977 ± 0.058. SMG6 (UniProt Q86US8) was tested, and the NP40-soluble protein abundance was 1.03 ± 0.031. In the case of UniProt Q8IZ73 and related entries, the NP40-soluble protein abundance is reported as 0.986 ± 0.049. STX12 (UniProt Q86Y82) gave an NP40-soluble protein abundance of 0.964 ± 0.032. For LMTK2 (UniProt Q8IWU2), the NP40-soluble protein abundance was 1.02 ± 0.042. UniProt Q8IYS2 and related entries showed an NP40-soluble protein abundance of 1.02 ± 0.014. Target CBR4 (UniProt Q8N4T8) has an NP40-soluble protein abundance of 0.993 ± 0.016. In the case of UniProt Q86X10 and related entries, the NP40-soluble protein abundance is reported as 1.03 ± 0.04. Work on UniProt Q8N5A5 and related entries yielded an NP40-soluble protein abundance of 1.01 ± 0.043. Target UniProt Q86TM6 and related entries has an NP40-soluble protein abundance of 0.996 ± 0.043. RAB43 (UniProt Q86YS6) was tested, and the NP40-soluble protein abundance was 1.03 ± 0.046. UniProt Q8N371 showed an NP40-soluble protein abundance of 1.03 ± 0.077. UniProt Q7Z6L1 and related entries was tested, and the NP40-soluble protein abundance was 0.964 ± 0.031. With NDUFAF2 (UniProt Q8N183) the NP40-soluble protein abundance was 1.01 ± 0.099. In the case of INTS1 (UniProt Q8N201), the NP40-soluble protein abundance is reported as 1.04 ± 0.013. For GLRX5 (UniProt Q86SX6), the NP40-soluble protein abundance was 0.983 ± 0.023. GALNT12 (UniProt Q8IXK2) gave an NP40-soluble protein abundance of 1 ± 0.055. UniProt Q8NB15-2|Q8NB15 showed an NP40-soluble protein abundance of 0.9923 ± 0.0067. Target SPATA5 (UniProt Q8NB90) has an NP40-soluble protein abundance of 1.01 ± 0.023. CACUL1 (UniProt Q86Y37) showed an NP40-soluble protein abundance of 1.01 ± 0.059. Work on UniProt Q8IYH5 and related entries yielded an NP40-soluble protein abundance of 0.949 ± 0.018. In the case of UniProt Q8IWZ8, the NP40-soluble protein abundance is reported as 0.956 ± 0.031. Work on UniProt Q8N2F6 and related entries yielded an NP40-soluble protein abundance of 0.977 ± 0.06. LRRC47 (UniProt Q8N1G4) was tested, and the NP40-soluble protein abundance was 0.99 ± 0.016. Target ZBTB2 (UniProt Q8N680) has an NP40-soluble protein abundance of 1 ± 0.038. UniProt Q86UK7 and related entries gave an NP40-soluble protein abundance of 1.03 ± 0.021. For UniProt Q8IUI8 and related entries, the NP40-soluble protein abundance was 1.011 ± 0.0072. UniProt Q8N4J0 showed an NP40-soluble protein abundance of 1.02 ± 0.053. Target UniProt Q8N4Q1 and related entries has an NP40-soluble protein abundance of 0.949 ± 0.034. RASAL3 (UniProt Q86YV0) was tested, and the NP40-soluble protein abundance was 1.04 ± 0.028.

Same assay, conditions: concentration: 0.5mM
With UniProt Q86WJ1 and related entries the NP40-soluble protein abundance was 0.989 ± 0.045. Target WDFY1 (UniProt Q8IWB7) has an NP40-soluble protein abundance of 0.996 ± 0.077. In the case of UniProt Q86X55 and related entries, the NP40-soluble protein abundance is reported as 0.976 ± 0.13. GLCCI1 (UniProt Q86VQ1) was tested, and the NP40-soluble protein abundance was 1.025 ± 0.0022. NUDCD3 (UniProt Q8IVD9) gave an NP40-soluble protein abundance of 1.03 ± 0.055. For UniProt Q8IUH3-3, the NP40-soluble protein abundance was 1.016 ± 0.0085. Target UniProt Q8NBJ4 and related entries has an NP40-soluble protein abundance of 1.06 ± 0.072. UniProt Q86WA6 and related entries gave an NP40-soluble protein abundance of 0.9823 ± 0.0058. Work on CCDC82 (UniProt Q8N4S0) yielded an NP40-soluble protein abundance of 0.99 ± 0.014. SMG6 (UniProt Q86US8) gave an NP40-soluble protein abundance of 0.983 ± 0.057. With UniProt Q8IZ73 and related entries the NP40-soluble protein abundance was 1 ± 0.032. Target STX12 (UniProt Q86Y82) has an NP40-soluble protein abundance of 0.997 ± 0.067. Work on LMTK2 (UniProt Q8IWU2) yielded an NP40-soluble protein abundance of 1.01 ± 0.015. With UniProt Q8IYS2 and related entries the NP40-soluble protein abundance was 0.975 ± 0.042. In the case of CBR4 (UniProt Q8N4T8), the NP40-soluble protein abundance is reported as 0.997 ± 0.068. UniProt Q86X10 and related entries showed an NP40-soluble protein abundance of 0.976 ± 0.046. UniProt Q8N5A5 and related entries was tested, and the NP40-soluble protein abundance was 1.04 ± 0.03. Work on UniProt Q86TM6 and related entries yielded an NP40-soluble protein abundance of 0.971 ± 0.027. Target RAB43 (UniProt Q86YS6) has an NP40-soluble protein abundance of 0.984 ± 0.06. UniProt Q8N371 showed an NP40-soluble protein abundance of 0.998 ± 0.015. Work on UniProt Q7Z6L1 and related entries yielded an NP40-soluble protein abundance of 0.948 ± 0.036. NDUFAF2 (UniProt Q8N183) showed an NP40-soluble protein abundance of 1.05 ± 0.1. Work on INTS1 (UniProt Q8N201) yielded an NP40-soluble protein abundance of 1.02 ± 0.055. Target GLRX5 (UniProt Q86SX6) has an NP40-soluble protein abundance of 1.08 ± 0.064. With GALNT12 (UniProt Q8IXK2) the NP40-soluble protein abundance was 0.972 ± 0.037. UniProt Q8NB15-2|Q8NB15 was tested, and the NP40-soluble protein abundance was 1.02 ± 0.027. SPATA5 (UniProt Q8NB90) was tested, and the NP40-soluble protein abundance was 1.05 ± 0.073. Work on CACUL1 (UniProt Q86Y37) yielded an NP40-soluble protein abundance of 1.01 ± 0.048. With UniProt Q8IYH5 and related entries the NP40-soluble protein abundance was 0.982 ± 0.045. Work on UniProt Q8IWZ8 yielded an NP40-soluble protein abundance of 0.976 ± 0.044. UniProt Q8N2F6 and related entries showed an NP40-soluble protein abundance of 1.02 ± 0.055. LRRC47 (UniProt Q8N1G4) was tested, and the NP40-soluble protein abundance was 0.985 ± 0.04. ZBTB2 (UniProt Q8N680) showed an NP40-soluble protein abundance of 1.01 ± 0.031. In the case of UniProt Q86UK7 and related entries, the NP40-soluble protein abundance is reported as 1 ± 0.023. With UniProt Q8IUI8 and related entries the NP40-soluble protein abundance was 1.01 ± 0.012. With UniProt Q8N4J0 the NP40-soluble protein abundance was 0.99 ± 0.1. UniProt Q8N4Q1 and related entries showed an NP40-soluble protein abundance of 1.04 ± 0.1. RASAL3 (UniProt Q86YV0) gave an NP40-soluble protein abundance of 1.01 ± 0.0086.
